For some assays here: Where cells or extracts were used, other partners may take part. For some assays here: No signal at the amounts used counts as a negative. For some assays here: At least one verdict rests on a figure or table, not on a statement of the authors. For some assays here: Tags and fusion partners may be left off the protein sequences shown. For some assays here: Construct, isoform or probe ends are uncertain for at least one entry. For some assays here: A weaker result is weaker than the reference pair of the same experiment.
Legend:
MBP-TFAM (Homo sapiens) = molecular target: T1, MBP-TFAM (Homo sapiens) (UniProt Q00059); assay: pull-down dot blot; conditions: low DNA binding; none; pulldown: 50 mM Tris pH 8, 150 mM NaCl, 1 mM DTT, 0.25% IGEPAL, dA:dT competitor, 4 C overnight; protein in a lysate after …; residues 1-246; protein details: N-terminal MBP, C-terminal His
T1 sequence (looked up): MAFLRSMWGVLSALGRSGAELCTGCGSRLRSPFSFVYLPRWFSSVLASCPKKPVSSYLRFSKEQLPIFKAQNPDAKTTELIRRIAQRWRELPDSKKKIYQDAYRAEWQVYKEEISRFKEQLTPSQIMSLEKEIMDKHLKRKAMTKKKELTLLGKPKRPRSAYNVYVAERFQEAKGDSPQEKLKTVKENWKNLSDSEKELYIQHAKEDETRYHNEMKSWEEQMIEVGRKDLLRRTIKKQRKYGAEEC

Chains of the proteins cited; added tags and fusions are not shown. A change or cut given only in a name is not applied to a line headed by its entry. Chains listed by the source or under a name are the forms on record and can include a tag or linker.
UniProt P48382: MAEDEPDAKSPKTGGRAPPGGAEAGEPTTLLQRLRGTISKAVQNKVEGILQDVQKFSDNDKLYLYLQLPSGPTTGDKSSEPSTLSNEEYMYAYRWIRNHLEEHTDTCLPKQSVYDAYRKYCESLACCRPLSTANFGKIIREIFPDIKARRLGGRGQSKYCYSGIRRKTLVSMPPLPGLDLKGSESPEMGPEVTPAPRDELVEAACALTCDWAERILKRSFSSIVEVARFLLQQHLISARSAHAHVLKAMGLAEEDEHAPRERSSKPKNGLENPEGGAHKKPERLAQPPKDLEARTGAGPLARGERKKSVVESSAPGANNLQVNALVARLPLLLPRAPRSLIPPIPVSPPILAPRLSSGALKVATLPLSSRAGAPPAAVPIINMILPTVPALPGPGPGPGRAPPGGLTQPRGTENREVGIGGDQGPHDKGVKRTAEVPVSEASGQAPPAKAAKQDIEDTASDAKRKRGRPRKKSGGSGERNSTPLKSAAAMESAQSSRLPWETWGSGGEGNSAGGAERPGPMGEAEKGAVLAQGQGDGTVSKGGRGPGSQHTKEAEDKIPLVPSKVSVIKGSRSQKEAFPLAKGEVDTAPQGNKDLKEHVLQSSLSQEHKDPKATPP
UniProt Q96JM7: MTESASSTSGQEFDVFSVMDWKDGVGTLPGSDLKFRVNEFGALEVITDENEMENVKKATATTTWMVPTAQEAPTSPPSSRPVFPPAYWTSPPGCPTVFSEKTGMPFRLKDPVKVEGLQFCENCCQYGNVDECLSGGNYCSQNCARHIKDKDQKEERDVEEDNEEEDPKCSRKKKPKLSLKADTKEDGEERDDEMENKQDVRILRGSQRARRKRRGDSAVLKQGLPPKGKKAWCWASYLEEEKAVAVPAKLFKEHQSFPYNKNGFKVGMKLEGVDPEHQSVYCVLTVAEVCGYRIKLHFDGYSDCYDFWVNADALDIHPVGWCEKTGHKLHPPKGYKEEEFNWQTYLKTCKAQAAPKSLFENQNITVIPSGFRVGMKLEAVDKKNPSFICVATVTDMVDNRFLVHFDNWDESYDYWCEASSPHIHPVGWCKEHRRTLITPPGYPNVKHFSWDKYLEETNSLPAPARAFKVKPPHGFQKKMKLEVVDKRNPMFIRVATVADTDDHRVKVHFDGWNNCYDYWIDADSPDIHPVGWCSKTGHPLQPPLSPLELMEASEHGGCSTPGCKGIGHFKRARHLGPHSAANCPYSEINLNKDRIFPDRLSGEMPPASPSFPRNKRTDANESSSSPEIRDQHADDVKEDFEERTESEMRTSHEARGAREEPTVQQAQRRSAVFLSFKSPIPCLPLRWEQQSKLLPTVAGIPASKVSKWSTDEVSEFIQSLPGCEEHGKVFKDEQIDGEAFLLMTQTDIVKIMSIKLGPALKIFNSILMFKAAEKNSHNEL
MBP-MYC (Homo sapiens), one chain, as listed by the source: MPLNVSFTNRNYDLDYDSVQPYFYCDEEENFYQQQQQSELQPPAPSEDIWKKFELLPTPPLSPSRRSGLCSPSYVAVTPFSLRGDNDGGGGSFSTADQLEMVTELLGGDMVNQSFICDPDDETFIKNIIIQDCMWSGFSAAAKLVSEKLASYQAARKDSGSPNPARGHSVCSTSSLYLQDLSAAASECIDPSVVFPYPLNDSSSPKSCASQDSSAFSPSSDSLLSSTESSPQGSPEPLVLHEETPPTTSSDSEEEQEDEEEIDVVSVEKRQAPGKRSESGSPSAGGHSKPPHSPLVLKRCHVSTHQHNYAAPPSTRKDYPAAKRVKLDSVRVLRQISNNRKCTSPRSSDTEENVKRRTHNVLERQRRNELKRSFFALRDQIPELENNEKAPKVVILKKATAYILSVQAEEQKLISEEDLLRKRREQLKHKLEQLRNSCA

MBP-RFX5 (Homo sapiens) = MBP-RFX5 (Homo sapiens) (UniProt P48382); assay: pull-down dot blot; conditions: none; pulldown: 50 mM Tris pH 8, 150 mM NaCl, 1 mM DTT, 0.25% IGEPAL, dA:dT competitor, 4 C overnight; protein in a lysate after overexpression; residues 1-616; protein details: N-terminal MBP, C-terminal His
[1] = molecular target: MBP-L3MBTL3 (Homo sapiens) (UniProt Q96JM7); assay: pull-down dot blot; conditions: low DNA binding; none; pulldown: 50 mM Tris pH 8, 150 mM NaCl, 1 mM DTT, 0.25% IGEPAL, dA:dT competitor, 4 C overnight; protein in a lysate after …; residues 1-780; protein details: N-terminal MBP, C-terminal His
MBP-MYC (Homo sapiens) = assay: pull-down dot blot; conditions: none; pulldown: 50 mM Tris pH 8, 150 mM NaCl, 1 mM DTT, 0.25% IGEPAL, dA:dT competitor, 4 C overnight; protein in a lysate after overexpression; residues 1-439; protein details: N-terminal MBP, C-terminal His
[2] = molecular target: T2, MBP-RFXANK (Homo sapiens) (UniProt O14593); assay: pull-down dot blot; conditions: none; pulldown: 50 mM Tris pH 8, 150 mM NaCl, 1 mM DTT, 0.25% IGEPAL, dA:dT competitor, 4 C overnight; protein in a lysate after overexpression; residues 1-260; protein details: N-terminal MBP, C-terminal His
T2 sequence (looked up): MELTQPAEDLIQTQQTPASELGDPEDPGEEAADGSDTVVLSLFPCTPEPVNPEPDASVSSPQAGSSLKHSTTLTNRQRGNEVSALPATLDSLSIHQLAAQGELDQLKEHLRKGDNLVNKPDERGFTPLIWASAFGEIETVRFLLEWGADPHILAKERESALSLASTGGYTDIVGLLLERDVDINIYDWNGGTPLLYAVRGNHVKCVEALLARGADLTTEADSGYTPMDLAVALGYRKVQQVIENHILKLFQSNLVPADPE

MBP-MAX (Homo sapiens) = MBP-MAX (Homo sapiens) (UniProt P61244); assay: pull-down dot blot; conditions: none; pulldown: 50 mM Tris pH 8, 150 mM NaCl, 1 mM DTT, 0.25% IGEPAL, dA:dT competitor, 4 C overnight; protein in a lysate after overexpression; residues 1-160; protein details: N-terminal MBP, C-terminal His
MBP-SUB1 (Homo sapiens) = MBP-SUB1 (Homo sapiens) (UniProt P53999); assay: pull-down dot blot; conditions: low DNA binding; none; pulldown: 50 mM Tris pH 8, 150 mM NaCl, 1 mM DTT, 0.25% IGEPAL, dA:dT competitor, 4 C overnight; protein in a lysate after …; residues 1-127; protein details: N-terminal MBP, C-terminal His
MBP-MBD2 (Homo sapiens) = MBP-MBD2 (Homo sapiens) (UniProt Q9UBB5); assay: pull-down western blot; conditions: 1 nM in HEK293T nuclear extract; none; pulldown: 50 mM Tris pH 8, 150 mM NaCl, 1 mM DTT, 0.25% IGEPAL, dA:dT competitor, 4 C overnight; recombinant protein; protein details: N-terminal MBP

**Q.** Does “TTTCCAAAGCCCATTCCCTCTTTAGCCAGAGCCGGGGTGTGCAGACGGCAGTCACTAGGGGGCGCTCGGCCACCACAGGGAAGCTGGGTGAATGGAGCGAGCAGCGTCTTCGAGAGTGAGGACGTGTGTGTCTGTGTGGGTGAGTGAGTGTGTGCGTGTGGGGTTGAGGGCGTTGGAGCGGGGAGAAGGCCAGGGGTCACT (double strand) [VEGFA PCR probe C/C]” bind (MBP-TFAM (Homo sapiens))?
**A.** binds more weakly

**Q.** Does “TTTCCAAAGCCCATTCCCTCTTTAGCCAGAGCCGGGGTGTGCAGACGGCAGTCACTAGGGGGCGCTCGGCCACCACAGGGAAGCTGGGTGAATGGAGCGAGCAGCGTCTTCGAGAGTGAGGACGTGTGTGTCTGTGTGGGTGAGTGAGTGTGTGCGTGTGGGGTTGAGGGCGTTGGAGCGGGGAGAAGGCCAGGGGTCACT (double strand) [VEGFA PCR probe C/C]” bind (MBP-RFX5 (Homo sapiens))?
**A.** binds more weakly

**Q.** Does “TTTCCAAAGCCCATTCCCTCTTTAGCCAGAGCCGGGGTGTGCAGACGGCAGTCACTAGGGGGCGCTCGGCCACCACAGGGAAGCTGGGTGAATGGAGCGAGCAGCGTCTTCGAGAGTGAGGACGTGTGTGTCTGTGTGGGTGAGTGAGTGTGTGCGTGTGGGGTTGAGGGCGTTGGAGCGGGGAGAAGGCCAGGGGTCACT (double strand) [VEGFA PCR probe C/C]” bind [1]?
**A.** binds more weakly

**Q.** Does “TTTCCAAAGCCCATTCCCTCTTTAGCCAGAGCCGGGGTGTGCAGACGGCAGTCACTAGGGGGCGCTCGGCCACCACAGGGAAGCTGGGTGAATGGAGCGAGCAGCGTCTTCGAGAGTGAGGACGTGTGTGTCTGTGTGGGTGAGTGAGTGTGTGCGTGTGGGGTTGAGGGCGTTGGAGCGGGGAGAAGGCCAGGGGTCACT (double strand) [VEGFA PCR probe C/C]” bind (MBP-MYC (Homo sapiens))?
**A.** binds

**Q.** Does “TTTCCAAAGCCCATTCCCTCTTTAGCCAGAGCCGGGGTGTGCAGACGGCAGTCACTAGGGGGCGCTCGGCCACCACAGGGAAGCTGGGTGAATGGAGCGAGCAGCGTCTTCGAGAGTGAGGACGTGTGTGTCTGTGTGGGTGAGTGAGTGTGTGCGTGTGGGGTTGAGGGCGTTGGAGCGGGGAGAAGGCCAGGGGTCACT (double strand) [VEGFA PCR probe C/C]” bind [2]?
**A.** no binding

**Q.** Does “TTTCCAAAGCCCATTCCCTCTTTAGCCAGAGCCGGGGTGTGCAGACGGCAGTCACTAGGGGGCGCTCGGCCACCACAGGGAAGCTGGGTGAATGGAGCGAGCAGCGTCTTCGAGAGTGAGGACGTGTGTGTCTGTGTGGGTGAGTGAGTGTGTGCGTGTGGGGTTGAGGGCGTTGGAGCGGGGAGAAGGCCAGGGGTCACT (double strand) [VEGFA PCR probe C/C]” bind (MBP-MAX (Homo sapiens))?
**A.** binds

**Q.** Does “TTTCCAAAGCCCATTCCCTCTTTAGCCAGAGCCGGGGTGTGCAGACGGCAGTCACTAGGGGGCGCTCGGCCACCACAGGGAAGCTGGGTGAATGGAGCGAGCAGCGTCTTCGAGAGTGAGGACGTGTGTGTCTGTGTGGGTGAGTGAGTGTGTGCGTGTGGGGTTGAGGGCGTTGGAGCGGGGAGAAGGCCAGGGGTCACT (double strand) [VEGFA PCR probe C/C]” bind (MBP-SUB1 (Homo sapiens))?
**A.** binds more weakly

**Q.** Does “TTTCCAAAGCCCATTCCCTCTTTAGCCAGAGCCGGGGTGTGCAGACGGCAGTCACTAGGGGGCGCTCGGCCACCACAGGGAAGCTGGGTGAATGGAGCGAGCAGCGTCTTCGAGAGTGAGGACGTGTGTGTCTGTGTGGGTGAGTGAGTGTGTGCGTGTGGGGTTGAGGGCGTTGGAGCGGGGAGAAGGCCAGGGGTCACT (double strand) [VEGFA PCR probe C/C]” bind (MBP-MBD2 (Homo sapiens))?
**A.** no binding

From article PMC13042984
